Results are given in words; binding and its absence hold for the method and conditions named. In cells and extracts the contact can be indirect. A yes stands for co-enrichment or nearness to the bait. Other partners may have been found. For some of these results: No binding means not detected with the bait. For some of these results: Tags and fused reporters may be left off the sequences shown.
Columns and labels:
[1] = biological target: Zip4-TurboID (S. cerevisiae); experiment: proximity labelling; eleven TurboID fusion strains (ndt80, homozygous) and a no-TurboID control, ~24 h sporulation, two replicates; TCA extract, streptavidin-sepharose pull-down, trypsin, UPLC-MS/MS; targets = in both replicates and in neither control
[2] = biological target: Zip4iTurboID (S. cerevisiae); experiment: as above
[3] = biological target: T1, Msh4-TurboID (S. cerevisiae) (UniProt P40965); experiment: as above
T1 sequence: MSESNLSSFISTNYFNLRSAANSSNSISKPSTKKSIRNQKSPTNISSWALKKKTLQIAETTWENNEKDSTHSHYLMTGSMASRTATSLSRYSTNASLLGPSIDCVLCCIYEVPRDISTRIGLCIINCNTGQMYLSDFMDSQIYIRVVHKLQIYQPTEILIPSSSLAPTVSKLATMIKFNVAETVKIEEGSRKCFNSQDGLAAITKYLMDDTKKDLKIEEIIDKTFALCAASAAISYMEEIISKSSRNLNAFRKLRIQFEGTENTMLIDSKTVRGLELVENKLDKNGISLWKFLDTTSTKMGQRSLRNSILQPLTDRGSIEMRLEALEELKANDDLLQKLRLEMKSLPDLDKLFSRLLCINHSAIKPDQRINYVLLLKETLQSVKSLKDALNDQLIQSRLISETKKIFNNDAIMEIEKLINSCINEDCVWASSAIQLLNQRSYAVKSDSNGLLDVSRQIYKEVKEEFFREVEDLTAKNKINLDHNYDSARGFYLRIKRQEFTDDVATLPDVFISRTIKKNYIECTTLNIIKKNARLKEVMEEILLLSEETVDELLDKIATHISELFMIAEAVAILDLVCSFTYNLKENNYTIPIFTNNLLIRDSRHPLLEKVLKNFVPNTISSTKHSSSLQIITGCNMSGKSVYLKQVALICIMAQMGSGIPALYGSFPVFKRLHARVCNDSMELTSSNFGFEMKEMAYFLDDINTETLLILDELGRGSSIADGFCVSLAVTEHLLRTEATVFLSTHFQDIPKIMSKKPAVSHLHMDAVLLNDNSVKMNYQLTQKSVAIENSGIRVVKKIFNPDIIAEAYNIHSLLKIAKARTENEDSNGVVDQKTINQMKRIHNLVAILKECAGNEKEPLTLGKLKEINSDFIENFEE

[4] = biological target: T2, Msh5-TurboID (S. cerevisiae) (UniProt Q12175); experiment: as above
T2 sequence: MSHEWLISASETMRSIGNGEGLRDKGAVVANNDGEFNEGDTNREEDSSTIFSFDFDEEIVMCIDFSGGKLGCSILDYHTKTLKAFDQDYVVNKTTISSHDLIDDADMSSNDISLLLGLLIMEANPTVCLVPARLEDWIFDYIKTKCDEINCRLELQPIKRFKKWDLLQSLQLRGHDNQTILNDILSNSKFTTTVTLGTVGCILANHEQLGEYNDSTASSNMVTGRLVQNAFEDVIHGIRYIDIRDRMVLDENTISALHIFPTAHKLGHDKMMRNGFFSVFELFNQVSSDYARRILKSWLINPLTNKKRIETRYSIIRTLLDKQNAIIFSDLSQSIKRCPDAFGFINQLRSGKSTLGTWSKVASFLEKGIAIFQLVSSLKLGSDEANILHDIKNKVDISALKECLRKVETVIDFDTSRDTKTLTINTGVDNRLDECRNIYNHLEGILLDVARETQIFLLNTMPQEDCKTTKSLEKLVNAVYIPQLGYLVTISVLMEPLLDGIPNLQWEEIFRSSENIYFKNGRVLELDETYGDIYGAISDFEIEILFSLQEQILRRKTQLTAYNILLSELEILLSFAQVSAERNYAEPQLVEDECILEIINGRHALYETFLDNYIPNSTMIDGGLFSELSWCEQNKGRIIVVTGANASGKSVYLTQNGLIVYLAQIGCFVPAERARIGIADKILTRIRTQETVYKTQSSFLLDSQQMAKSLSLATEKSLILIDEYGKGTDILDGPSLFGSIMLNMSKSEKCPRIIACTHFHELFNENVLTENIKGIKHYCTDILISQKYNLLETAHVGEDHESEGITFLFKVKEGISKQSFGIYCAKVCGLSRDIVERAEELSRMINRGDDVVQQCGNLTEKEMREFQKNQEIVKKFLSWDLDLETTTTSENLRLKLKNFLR

[5] = biological target: T3, Zip2-TurboID (S. cerevisiae) (UniProt P53061); experiment: proximity labelling; TurboID fusion allele (homozygous, or heterozygous where said) in ndt80 diploid cells, 24 h in sporulation medium, endogenous biotin; TCA extract, 8% or 12% SDS-PAGE, streptavidin:HRP blot; also done in mutant backgrounds in which the labelling was kept
T3 sequence: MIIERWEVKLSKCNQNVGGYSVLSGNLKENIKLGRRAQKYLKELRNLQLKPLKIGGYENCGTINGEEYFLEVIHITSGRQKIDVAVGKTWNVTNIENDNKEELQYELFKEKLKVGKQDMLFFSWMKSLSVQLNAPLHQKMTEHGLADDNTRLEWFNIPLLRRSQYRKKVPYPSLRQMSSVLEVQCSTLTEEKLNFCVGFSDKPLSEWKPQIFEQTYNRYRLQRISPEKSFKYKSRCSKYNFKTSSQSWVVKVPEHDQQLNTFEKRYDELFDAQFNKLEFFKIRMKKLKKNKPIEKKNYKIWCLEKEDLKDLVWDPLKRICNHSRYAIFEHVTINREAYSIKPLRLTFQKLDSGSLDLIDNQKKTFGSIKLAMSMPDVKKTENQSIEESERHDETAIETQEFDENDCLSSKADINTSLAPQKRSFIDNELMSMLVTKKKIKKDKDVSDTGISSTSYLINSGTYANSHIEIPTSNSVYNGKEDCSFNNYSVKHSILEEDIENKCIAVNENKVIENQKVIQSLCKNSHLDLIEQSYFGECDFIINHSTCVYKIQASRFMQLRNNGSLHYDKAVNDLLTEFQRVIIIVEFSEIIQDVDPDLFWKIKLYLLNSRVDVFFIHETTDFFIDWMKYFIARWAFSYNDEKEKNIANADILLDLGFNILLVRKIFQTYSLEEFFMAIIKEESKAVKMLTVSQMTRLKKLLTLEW

[6] = biological target: Zip4iTurboID (S. cerevisiae); experiment: as above

B1: Zip2 (protein, UniProt P53061 1-704)
chain: MIIERWEVKLSKCNQNVGGYSVLSGNLKENIKLGRRAQKYLKELRNLQLKPLKIGGYENCGTINGEEYFLEVIHITSGRQKIDVAVGKTWNVTNIENDNKEELQYELFKEKLKVGKQDMLFFSWMKSLSVQLNAPLHQKMTEHGLADDNTRLEWFNIPLLRRSQYRKKVPYPSLRQMSSVLEVQCSTLTEEKLNFCVGFSDKPLSEWKPQIFEQTYNRYRLQRISPEKSFKYKSRCSKYNFKTSSQSWVVKVPEHDQQLNTFEKRYDELFDAQFNKLEFFKIRMKKLKKNKPIEKKNYKIWCLEKEDLKDLVWDPLKRICNHSRYAIFEHVTINREAYSIKPLRLTFQKLDSGSLDLIDNQKKTFGSIKLAMSMPDVKKTENQSIEESERHDETAIETQEFDENDCLSSKADINTSLAPQKRSFIDNELMSMLVTKKKIKKDKDVSDTGISSTSYLINSGTYANSHIEIPTSNSVYNGKEDCSFNNYSVKHSILEEDIENKCIAVNENKVIENQKVIQSLCKNSHLDLIEQSYFGECDFIINHSTCVYKIQASRFMQLRNNGSLHYDKAVNDLLTEFQRVIIIVEFSEIIQDVDPDLFWKIKLYLLNSRVDVFFIHETTDFFIDWMKYFIARWAFSYNDEKEKNIANADILLDLGFNILLVRKIFQTYSLEEFFMAIIKEESKAVKMLTVSQMTRLKKLLTLEW
In the case of B1, the binding [1] is reported as “binds”, the binding [2] is reported as “binds” and the binding [3] is reported as “binds”. The binding [4] was “binds”.

B2: Msh5 (protein, UniProt Q12175 1-901)
chain: MSHEWLISASETMRSIGNGEGLRDKGAVVANNDGEFNEGDTNREEDSSTIFSFDFDEEIVMCIDFSGGKLGCSILDYHTKTLKAFDQDYVVNKTTISSHDLIDDADMSSNDISLLLGLLIMEANPTVCLVPARLEDWIFDYIKTKCDEINCRLELQPIKRFKKWDLLQSLQLRGHDNQTILNDILSNSKFTTTVTLGTVGCILANHEQLGEYNDSTASSNMVTGRLVQNAFEDVIHGIRYIDIRDRMVLDENTISALHIFPTAHKLGHDKMMRNGFFSVFELFNQVSSDYARRILKSWLINPLTNKKRIETRYSIIRTLLDKQNAIIFSDLSQSIKRCPDAFGFINQLRSGKSTLGTWSKVASFLEKGIAIFQLVSSLKLGSDEANILHDIKNKVDISALKECLRKVETVIDFDTSRDTKTLTINTGVDNRLDECRNIYNHLEGILLDVARETQIFLLNTMPQEDCKTTKSLEKLVNAVYIPQLGYLVTISVLMEPLLDGIPNLQWEEIFRSSENIYFKNGRVLELDETYGDIYGAISDFEIEILFSLQEQILRRKTQLTAYNILLSELEILLSFAQVSAERNYAEPQLVEDECILEIINGRHALYETFLDNYIPNSTMIDGGLFSELSWCEQNKGRIIVVTGANASGKSVYLTQNGLIVYLAQIGCFVPAERARIGIADKILTRIRTQETVYKTQSSFLLDSQQMAKSLSLATEKSLILIDEYGKGTDILDGPSLFGSIMLNMSKSEKCPRIIACTHFHELFNENVLTENIKGIKHYCTDILISQKYNLLETAHVGEDHESEGITFLFKVKEGISKQSFGIYCAKVCGLSRDIVERAEELSRMINRGDDVVQQCGNLTEKEMREFQKNQEIVKKFLSWDLDLETTTTSENLRLKLKNFLR
With B2 the binding [1] was “binds” and the binding [2] was “binds”.

B3: Zip3iMYC (protein, UniProt Q06032 1-482)
chain: MGGYLAIVFIPQTNTKSMREKKQKCLKQVRRLSLISPKKYIMPDSIFEQPFVYCGVCHRRTSHGDPLRLTSCAHILCSQHSPLTSKVCPICRSSDISIINLVESKQLPTDIRIFFEPLPPLLESLYNVSQFQLNGLSKQCQYYQNHCLKLREKCARQQQLLYQAKIELDSMAILKKRIQELESVLNHNNVSSMSVGVLPTRNSHQNHYQPPPTVDLTVDDNSLEEFEAKSFIKKLKKNSSLRNSSKNNNGTVTPSTSGRVNKNQPLFMETLNNPNRNSIPPPGMNPNANSNLPNISTIAESTNLNRFSFSPVRVAKGFDGKLPNLDILTNNGSVSSKNISRLSSASLQPSSPLSSSSNRLILPNSNLKELHHSNTPLTSTSTQFPSALEKLKITRKRNNTISGSNRITHNLSSHVRSSGLAFSSSSNSLQQSKLPKSNILKRSNSTQQLTNTHLKSDNHLPPRSSNTVLGSSKKNNKFRRIR
In the case of B3, the binding [5] is reported as “binds”.

B4: Ecm11-3xFLAG (protein, UniProt Q04110 1-302)
chain: MTVIKTEPTTEVTLYSPPSKESLSKDDAHRKKQNNKPPSSINSRSGPNKHKLAAKAPEKKINNTDKQDLSAFLLNPSLIVKPSESKKKENIVAYNDTPGIKTEHTAFQPLTPISKKRALKEKAASEKCDSFDLSRDEKPYIQKKSKTLSSVTEINSSEYKLSLNGENTSSPAKEKSQEPIENPGSYQKTRNYLFEKPDPLDTCLQDYSSMLPSNVAEEDQEYFISVADSTLEEWTNKGQEIIDQQFQLYQEIIKKRIELSYKFKGIISVINDRADALEEQGQQLEGKIKKVKTLANEILNII
In the case of B4, the binding [6] is reported as “no binding”.

B5: Spo16 (protein, UniProt P17122 1-198)
chain: MSEFFWDVQKIQEISNVEEHSVVKCVTVNTSRLISQLNEELQDEESGVNFIVTQLQLLINNVYEKIQKSPGVPAHRSLMINLNFTRLKFSIAYWDILLERSLDLINGPSKTGARYFITEVTPVDRSRYVENNQYFLAFKANQRLTRNSVDMDEFIDFEILIKQIIFDLFKKNGIPDQDFEAILSRFHNLESLVVAFNE
In the case of B5, the binding [1] is reported as “no binding” and the binding [2] is reported as “no binding”.

— PMC11508090
